Test [1] addresses lymphocyte activation gene-3 (LAG3), endogenous in mouse CD8+ T cells (mouse (endogenous in OT-1 and C57BL/6 CD8+ T cells)) (UniProt Q61790). In words: co-IP; Lag3-/- or Pdcd1-/- mouse CD8+ T cells retrovirally transduced with LAG3 or PD1 constructs (pMIG-II), sorted, rested in IL2, restimulated with IE9mp1 for 5 min or treated with pervanadate for 5 min; antibody-conjugated Dynal beads; Western blot, densitometry normalised to input.

By UniProt entry, the sequences of proteins in these tests, tags left out. Residues count along the entry.
UniProt Q61790, residues 24-521: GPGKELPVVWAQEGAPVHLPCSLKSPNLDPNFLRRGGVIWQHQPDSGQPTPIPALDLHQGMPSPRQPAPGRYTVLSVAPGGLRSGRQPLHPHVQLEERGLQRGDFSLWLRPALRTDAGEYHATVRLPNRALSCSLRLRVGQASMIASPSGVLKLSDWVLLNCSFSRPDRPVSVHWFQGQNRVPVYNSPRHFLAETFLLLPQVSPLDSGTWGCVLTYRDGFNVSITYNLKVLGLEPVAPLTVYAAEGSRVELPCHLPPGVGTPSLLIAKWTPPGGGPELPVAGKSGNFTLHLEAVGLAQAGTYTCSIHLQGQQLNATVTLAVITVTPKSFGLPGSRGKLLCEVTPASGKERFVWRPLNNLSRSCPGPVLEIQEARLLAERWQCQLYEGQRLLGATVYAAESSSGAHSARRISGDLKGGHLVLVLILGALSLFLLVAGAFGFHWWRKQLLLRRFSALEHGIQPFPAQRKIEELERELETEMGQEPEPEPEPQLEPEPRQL
UniProt Q02242, residues 25-288: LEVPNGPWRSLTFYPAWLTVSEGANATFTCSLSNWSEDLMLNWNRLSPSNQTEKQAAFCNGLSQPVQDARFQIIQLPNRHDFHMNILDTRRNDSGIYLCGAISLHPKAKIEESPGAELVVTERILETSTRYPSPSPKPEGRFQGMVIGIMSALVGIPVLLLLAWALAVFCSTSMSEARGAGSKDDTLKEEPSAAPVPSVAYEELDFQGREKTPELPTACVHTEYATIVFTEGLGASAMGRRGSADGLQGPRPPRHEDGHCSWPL
UniProt P29351: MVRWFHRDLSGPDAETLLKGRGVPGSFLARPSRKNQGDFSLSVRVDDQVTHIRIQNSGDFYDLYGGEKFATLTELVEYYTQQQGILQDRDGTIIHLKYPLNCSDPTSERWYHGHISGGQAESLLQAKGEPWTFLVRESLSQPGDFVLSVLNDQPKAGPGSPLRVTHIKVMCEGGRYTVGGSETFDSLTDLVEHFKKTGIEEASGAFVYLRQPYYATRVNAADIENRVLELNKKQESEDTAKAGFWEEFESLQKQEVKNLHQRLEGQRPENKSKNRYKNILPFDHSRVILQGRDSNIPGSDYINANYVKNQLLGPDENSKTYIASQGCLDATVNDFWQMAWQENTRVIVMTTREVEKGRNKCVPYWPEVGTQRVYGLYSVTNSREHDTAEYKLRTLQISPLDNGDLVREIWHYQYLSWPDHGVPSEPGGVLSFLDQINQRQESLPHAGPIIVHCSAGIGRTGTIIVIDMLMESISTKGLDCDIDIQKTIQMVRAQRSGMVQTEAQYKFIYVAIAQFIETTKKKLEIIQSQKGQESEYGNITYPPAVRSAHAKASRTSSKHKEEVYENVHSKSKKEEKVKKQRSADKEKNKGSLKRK

For test [2] the target is unchanged. The test is described as follows: co-IP; endogenous proteins; activated mouse CD8+ T cells (OT-1, C57BL/6; also Lag3-/- or Pdcd1-/-) rested in IL2 and restimulated with plate-bound anti-CD3/B7.1 or with IE9mp1 tumour cells for 3 or 5 min, or treated with pervanadate for 5 min; in some samples pre-treatment with blocking anti-PD-L1 and anti-PD1 antibodies; lysis in 20 mM Tris pH 7.4, 100 mM NaCl, 0.1% Nonidet P-40, 0.1% Triton X-100; antibody-conjugated Dynal beads; Western blot. In general terms: In western blotting, separated proteins are transferred to a membrane and probed.

Test [3] concerns the target programmed cell death 1 (PD1), endogenous in mouse CD8+ T cells (mouse (endogenous in OT-1 and C57BL/6 CD8+ T cells)) (UniProt Q02242). The test is described as above.
Test [4] deals with wild-type LAG3 expressed from pMIG-LAG3-Wt in Lag3-/- CD8+ T cells (UniProt Q61790). The test is described as follows: co-IP; Lag3-/- or Pdcd1-/- mouse CD8+ T cells retrovirally transduced with LAG3 or PD1 constructs (pMIG-II), sorted, rested in IL2, restimulated with IE9mp1 for 5 min or treated with pervanadate for 5 min; antibody-conjugated Dynal beads; Western blot, densitometry normalised to input.

In test [5] the target is programmed cell death 1 (PD1), endogenous in mouse CD8+ T cells (mouse (endogenous in OT-1 and C57BL/6 CD8+ T cells)) (UniProt Q02242). The description is as above.

Results are given in words; binding and its absence hold for the method and conditions named. Binding seen in cells or lysates may run through a third protein. Some binding calls cover weakened binding; strength is not graded here.

“Src-homology-2 domain-containing phosphatase SHP1, endogenous in mouse CD8+ T cells (from UniProt P29351 1-595) (enzyme)”: the binding result in test [1] and in test [2] was “binds” throughout.

For the substance “lymphocyte activation gene-3 (LAG3), endogenous in mouse CD8+ T cells (from UniProt Q61790 24-521) (receptor)”, in test [3], the binding result is given as “binds”. As for “programmed cell death 1 (PD1), endogenous in mouse CD8+ T cells (from UniProt Q02242 25-288) (receptor)”, the binding entry in test [4] and in test [2] was “binds” in each case.

With “wild-type LAG3 expressed from pMIG-LAG3-Wt in Lag3-/- CD8+ T cells (from UniProt Q61790 24-521) (receptor)”, the binding result in test [5] was “binds”. As for “wild-type PD1 expressed from pMIG-II in Pdcd1-/- CD8+ T cells (from UniProt Q02242 25-288) (receptor)”, in test [1], the binding result is “binds”.

(Values after paper PMC4694995.)
